These are yes or no findings as the source states them, for the method shown. Some entries that bind do so weakly or less than the wild type. Tags and fused reporters may be left off the sequences shown.
Columns and labels:
[1] = biological target: T1, soluble extracellular domain of human α-Klotho (aa 1-980) fused to a 6xHis tag (human) (UniProt Q9UEF7); test: BLI; figure legend
T1 sequence: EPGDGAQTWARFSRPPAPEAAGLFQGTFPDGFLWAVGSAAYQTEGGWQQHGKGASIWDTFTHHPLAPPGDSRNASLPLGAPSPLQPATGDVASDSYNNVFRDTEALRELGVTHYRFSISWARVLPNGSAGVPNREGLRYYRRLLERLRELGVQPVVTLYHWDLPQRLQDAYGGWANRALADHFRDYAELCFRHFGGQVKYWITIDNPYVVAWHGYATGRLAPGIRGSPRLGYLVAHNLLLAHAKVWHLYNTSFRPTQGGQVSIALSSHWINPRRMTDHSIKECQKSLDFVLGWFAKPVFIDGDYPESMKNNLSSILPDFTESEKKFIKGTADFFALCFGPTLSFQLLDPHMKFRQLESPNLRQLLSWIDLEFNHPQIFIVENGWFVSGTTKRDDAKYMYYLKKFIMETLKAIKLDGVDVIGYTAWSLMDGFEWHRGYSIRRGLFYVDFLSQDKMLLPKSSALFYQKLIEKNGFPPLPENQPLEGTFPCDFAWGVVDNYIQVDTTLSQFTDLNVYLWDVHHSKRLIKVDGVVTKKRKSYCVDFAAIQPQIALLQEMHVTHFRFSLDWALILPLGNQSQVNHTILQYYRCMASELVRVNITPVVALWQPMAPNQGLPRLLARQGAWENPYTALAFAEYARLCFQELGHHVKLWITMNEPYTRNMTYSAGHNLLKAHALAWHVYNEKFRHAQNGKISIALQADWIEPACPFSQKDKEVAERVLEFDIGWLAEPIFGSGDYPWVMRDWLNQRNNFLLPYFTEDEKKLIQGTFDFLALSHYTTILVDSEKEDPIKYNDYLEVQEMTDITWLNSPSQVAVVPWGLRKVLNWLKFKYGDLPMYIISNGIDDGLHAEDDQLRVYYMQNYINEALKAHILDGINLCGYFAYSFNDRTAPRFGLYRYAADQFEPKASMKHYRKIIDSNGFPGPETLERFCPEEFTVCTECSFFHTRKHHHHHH

[2] = biological target: T1, soluble extracellular domain of human α-Klotho (aa 1-980) fused to a 6xHis tag (human); test: BLI
[3] = biological target: T1, soluble extracellular domain of human α-Klotho (aa 1-980) fused to a 6xHis tag (human); test: BLI sensorgrams; GST fusion captured on anti-GST biosensor, dipped into sKLA at 6.25, 12.5, 25, 50, 100 and 200 nM
[4] = biological target: T1, soluble extracellular domain of human α-Klotho (aa 1-980) fused to a 6xHis tag (human); test: BLI; GST fusions on anti-GST sensors, sKLA as analyte

Measured: binding

B1: GST fusion of repeat 1 (R1, aa 180-205) of the human FGF23 C-terminal tail (peptide, not shown: a dimerising Fc or GST)
chain: SAEDDSERDPLNVLKPRARMTPAPAS
binds: all assays above

B2: GST fusion of repeat 2 (R2) of the human FGF23 C-terminal tail (peptide, not shown: a dimerising Fc or GST)
chain: SAEDNSPMASDPLGVVRGGRVNTHAGGTGPEG
binds: all assays above

— patent publication US20240034762A1 (YALE UNIVERSITY, published 2024)
